Structures can show the parent of a compound that is named as a salt. At least one structure is not confirmed: it was looked up by name or label, or the drawing left a doubt.
Test: Evaluation of photostability (exposed to sunlight at 25° C. for 4 weeks, HPLC content)
Type: physicochemical
Settings: stored at 25° C. for 4 weeks with light exposure; Hydrochloride
Protocol: To evaluate photostability, a change in the content (%, HPLC) of each sample was observed under the same HPLC analysis conditions as in the evaluation of thermal stability. Photostability is quite an important factor in therapeutic agents for treating hypertension because they are administered to patients over a prolonged period of dosage.

## CCOC(=O)C1=C(COCCN)NC(C)=C(C(=O)OC)C1c1ccccc1Cl (stereo not shown) [Hydrochloride salt, Amlodipine Hydrochloride]
  Content (HPLC): 60.5%
